Reference: the supplement of paper PMC4604168 (melanoma cell lines)
The other results are listed elsewhere or left out. Many values rest on one well or one pass, so single values are uncertain.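 The apoptosis fraction was the count of cleaved-PARP antibody-stained nuclei relative to all DNA-stained nuclei, imaged in 1,536-well plates. Screening doses were set so most cells survived, and baseline and induced cleaved-PARP levels vary greatly across cell lines.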

Experiments:
Test in all cases: cleaved PARP positive nuclei fraction relative to DMSO control; melanoma cells; higher = more apoptosis
Conditions in all cases: library dose: low library concentration; 72 h
COLO792 = tested on: COLO792
COLO800 = tested on: COLO800
COLO829 = tested on: COLO829
G361 = tested on: G361
IPC-298 = tested on: IPC-298
IST-MEL1 = tested on: IST-MEL1
LB2518-MEL = tested on: LB2518-MEL
LOXIMVI = tested on: LOXIMVI
MEL-HO = tested on: MEL-HO
MZ2-MEL = tested on: MZ2-MEL
MeWo = tested on: MeWo
RPMI7951 = tested on: RPMI7951
RVH-421 = tested on: RVH-421
SkMel28 = tested on: SkMel28
SkMel2 = tested on: SkMel2
SkMel30 = tested on: SkMel30
SkMel5 = tested on: SkMel5
UACC257 = tested on: UACC257
UACC62 = tested on: UACC62

SMILES	cleaved PARP positive nuclei fraction (COLO792)	cleaved PARP positive nuclei fraction (COLO800)	cleaved PARP positive nuclei fraction (COLO829)	cleaved PARP positive nuclei fraction (G361)	cleaved PARP positive nuclei fraction (IPC-298)	cleaved PARP positive nuclei fraction (IST-MEL1)	cleaved PARP positive nuclei fraction (LB2518-MEL)	cleaved PARP positive nuclei fraction (LOXIMVI)	cleaved PARP positive nuclei fraction (MEL-HO)	cleaved PARP positive nuclei fraction (MZ2-MEL)	cleaved PARP positive nuclei fraction (MeWo)	cleaved PARP positive nuclei fraction (RPMI7951)	cleaved PARP positive nuclei fraction (RVH-421)	cleaved PARP positive nuclei fraction (SkMel28)	cleaved PARP positive nuclei fraction (SkMel2)	cleaved PARP positive nuclei fraction (SkMel30)	cleaved PARP positive nuclei fraction (SkMel5)	cleaved PARP positive nuclei fraction (UACC257)	cleaved PARP positive nuclei fraction (UACC62)
Cc1cn(-c2cc(NC(=O)c3ccc(C)c(Nc4nccc(-c5cccnc5)n4)c3)cc(C(F)(F)F)c2)cn1 [nilotinib] + CN(C)S(=O)(=O)c1ccc2c(c1)/C(=C/c1cc3c([nH]1)CCCC3)C(=O)N2 [SU6656] (first compound 0.2 µM, partner dose 0.4 µM)	57.4%	95%	100%	84.3%	45.8%	162%	84.9%	24.5%	135%	116%	50.5%	137%	146%	257%	74.6%	68.8%	70.8%	30.4%	115%
O=C(/C=C/c1cccnc1)NCCCCC1CCN(C(=O)c2ccccc2)CC1 + OCCn1cc(-c2cnc3nnn(Cc4ccc5ncccc5c4)c3n2)cn1 [PF04217903] (first compound 0.01 µM, partner dose 1 µM)	373%	222%	252%	2120%	106%	142%	61.4%	112%	189%	1160%	57.5%	46.4%	41.8%	112%	714%	67.2%	98.7%	71.4%	47.8%
O=c1[nH]nc(Sc2ncc([N+](=O)[O-])s2)n1-c1ccc2c(c1)OCCO2 + Oc1cc(-c2nc(-c3ccccc3)[nH]c2-c2ccncc2)ccc1Cl [L779450] (first compound 0.2 µM, partner dose 0.2 µM)	14%	173%	85.5%	64.6%	145%	84.5%	90.4%	113%		143%	43.6%	121%	116%	91.2%	170%	87.2%	68.3%	57.5%	146%
N#CC[C@H](C1CCCC1)n1cc(-c2ncnc3[nH]ccc23)cn1 [ruxolitinib] + CCCCCCCCCCCC1=C(O)C(=O)C=C(O)C1=O [Embelin] (first compound 1 µM, partner dose 1.2 µM)	164%	36.2%	81.9%	96.2%	62.1%	246%	109%	85.9%		40.3%	115%	27.9%	48.8%	136%	20.5%	25.8%	147%	65.3%	115%
Cc1cc(Nc2cc(N3CCN(C)CC3)nc(Sc3ccc(NC(=O)C4CC4)cc3)n2)n[nH]1 [Tozasertib] + COc1ccc(COc2ccc(Cc3cnc(N)nc3N)cc2OC)cc1 [GW2580] (first compound 0.006 µM, partner dose 1 µM)	77.8%	276%	72.1%	123%	62.4%	62.7%	51.7%	68.5%		189%	39.8%	37.4%	43%	140%	78%	40.4%	72.9%	134%	264%
O=C(Nc1cc(C(F)(F)F)cc(C(F)(F)F)c1)c1cc(Cl)ccc1O + COc1cc(Nc2ncc(F)c(Nc3ccc4c(n3)NC(=O)C(C)(C)O4)n2)cc(OC)c1OC [Tamatinib] (first compound 0.016 µM, partner dose 0.4 µM)	122%	186%	36.3%	122%	57.2%	151%	55.9%	69.7%	80.8%	46.1%	186%	49.9%	30.6%	97.7%	86.2%	71.6%	54.2%	278%	435%
Cc1cc(Nc2cc(N3CCN(C)CC3)nc(Sc3ccc(NC(=O)C4CC4)cc3)n2)n[nH]1 [Tozasertib] + Oc1cc(-c2nc(-c3ccccc3)[nH]c2-c2ccncc2)ccc1Cl [L779450] (first compound 0.006 µM, partner dose 0.2 µM)	70.5%	64.8%	62.3%	148%	128%	58.4%	48.2%	35.2%		87.6%	48.6%	68.9%	72.2%	94%	83.8%	175%	78.8%	80.3%	68.5%
O=C(Nc1cc(C(F)(F)F)cc(C(F)(F)F)c1)c1cc(Cl)ccc1O + COc1cc(N2CCC(N3CCN(C)CC3)CC2)ccc1Nc1ncc(Cl)c(Nc2ccccc2S(=O)(=O)C(C)C)n1 [NVP-TAE684] (first compound 0.016 µM, partner dose 0.08 µM)	105%	99.9%	87.7%	76.8%	97.3%	212%	180%	89.5%		189%	151%	38.6%	153%	179%	125%	75.5%	254%	156%	134%
COc1cc([C@@H]2c3cc4c(cc3[C@@H](O[C@@H]3O[C@@H]5CO[C@@H](C)O[C@H]5[C@H](O)[C@H]3O)[C@H]3COC(=O)[C@H]23)OCO4)cc(OC)c1O [etoposide] + C=CCn1c(=O)c2cnc(Nc3ccc(N4CCN(C)CC4)cc3)nc2n1-c1cccc(C(C)(C)O)n1 [MK1775] (first compound 0.02 µM, partner dose 0.02 µM)	62.7%	140%	258%	88.1%	64.6%	187%	58.9%	64.5%	91.1%	89.8%	181%	51.1%		92.6%	78.4%	91.4%	105%	87.4%	93.5%
O=c1[nH]nc(Sc2ncc([N+](=O)[O-])s2)n1-c1ccc2c(c1)OCCO2 + COc1cc(N2CCC(N3CCN(C)CC3)CC2)ccc1Nc1ncc(Cl)c(Nc2ccccc2S(=O)(=O)C(C)C)n1 [NVP-TAE684] (first compound 0.2 µM, partner dose 0.08 µM)	67.1%	86.9%	173%	47.8%	40.7%	136%	221%	132%		78.9%	93.6%	161%	64.6%	108%	132%	150%	76.1%	134%	242%
CCCCCCCCCCCCCCCCCCOP(=O)([O-])OC1CC[N+](C)(C)CC1 [Perifosine] + Oc1cc(-c2nc(-c3ccccc3)[nH]c2-c2ccncc2)ccc1Cl [L779450] (first compound 0.4 µM, partner dose 0.2 µM)	161%	92.7%	68.9%	227%	56.4%	87.3%	41.4%	86.3%		41.2%	282%	379%	112%	104%	177%	106%	139%	102%	240%
O=C(Nc1cc(C(F)(F)F)cc(C(F)(F)F)c1)c1cc(Cl)ccc1O + COC(=O)c1sccc1S(=O)(=O)Nc1ccc(Nc2ccccc2)cc1OC [GSK0660] (first compound 0.016 µM, partner dose 1 µM)	129%	107%	68.2%	73.2%	29.5%	147%	65.9%	138%		94.6%	358%	177%	67.7%	30.1%	104%	144%	157%	198%	75.1%
O=c1[nH]nc(Sc2ncc([N+](=O)[O-])s2)n1-c1ccc2c(c1)OCCO2 + O=C1NC(=O)/C(=C/c2ccc(-c3ccc(F)cc3O)o2)S1 [AS252424] (first compound 0.2 µM, partner dose 1 µM)	87.7%	35.6%	38.4%	148%	92.5%	138%	79.7%	135%		99.1%	95.6%	35%	127%	68.7%	34%	25.4%	63.2%	449%	79.6%
O=C(/C=C/c1cccnc1)NCCCCC1CCN(C(=O)c2ccccc2)CC1 + O=c1cc(-c2cccc3c2Sc2ccccc2S3)oc(N2CCOCC2)c1 [KU55933] (first compound 0.01 µM, partner dose 1 µM)	227%	20.9%	68.9%	2010%	454%	208%	220%	35.6%		398%	78.5%	76.4%	151%	117%	366%	80.4%	40.9%	146%	78.2%
COc1cc([C@@H]2c3cc4c(cc3[C@@H](O[C@@H]3O[C@@H]5CO[C@@H](C)O[C@H]5[C@H](O)[C@H]3O)[C@H]3COC(=O)[C@H]23)OCO4)cc(OC)c1O [etoposide] + CCCCCCCCCCCC1=C(O)C(=O)C=C(O)C1=O [Embelin] (first compound 0.02 µM, partner dose 1.2 µM)	93.1%	125%	77%	103%	48.2%	113%	67.3%	45.5%		68.9%	51.9%	77.2%	126%	144%	108%	63.7%	64.6%	151%	44.6%
CCCCCCCCCCCCCCCCCCOP(=O)([O-])OC1CC[N+](C)(C)CC1 [Perifosine] + CCCCCCCCCCCC1=C(O)C(=O)C=C(O)C1=O [Embelin] (first compound 0.4 µM, partner dose 1.2 µM)	172%	53.2%	60.7%	61.6%	87.9%	176%	73%	80.8%		120%	87.6%	41.3%	21.8%	99.4%	89.1%	82.7%	148%	44.6%	189%
Cc1cn(-c2cc(NC(=O)c3ccc(C)c(Nc4nccc(-c5cccnc5)n4)c3)cc(C(F)(F)F)c2)cn1 [nilotinib] + O=C(Nc1ccccc1)c1cc([N+](=O)[O-])ccc1Cl [GW9662] (first compound 0.2 µM, partner dose 2 µM)	147%	125%	123%	195%	74.3%	243%	255%	133%		122%	173%	78.6%	32.3%	78.2%	139%	46.5%	81.6%	150%	191%
